Laboratory results published in PubChem BioAssay AID2685 (National Center for Advancing Translational Sciences (NCATS), 2010).
Among all 320,000 compounds or so, about 2,100 (0.66%) were called active. Inconclusive results, whose numbers are uncertain, are shown with a selection of clear calls. The call rests on the fitted dose curve; in most records, active means well fitted inhibition curve with a large enough effect in the signal ratio, with a control signal flat (not every such curve was filed as active); inconclusive means small, poorly fitted or top-dose-only effect, or effect the other way, or a change in a side signal; inactive means flat fitted curve, though single readings scatter; the % refers to the signal ratio. Potencies beside an inconclusive call are fits to weak or partial responses and may not hold up.
On the % scale 0 is the no-effect control and ±100 the full control effect; potency means the concentration at half of the fitted maximal effect.

Assay: qHTS Assay for Lipid Storage Modulators in Drosophila S3 Cells
Settings: BODIPY lipid droplet fluorescence, 18-24 h, cells fed with added oleic acid; lipid storage change, negative = inhibition: at 46.1 µM (top of the series) unless noted
Summary of the method: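 Laser-scanning cytometry quantifies lipid droplet accumulation (500–530 nm total intensity; droplet/cell object ratio) in oleic acid-fed (400 uM added) Drosophila S3 cells treated with a concentration series. 20 uM Triacsin C defined 100% inhibition.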
In the case of `CCC(C(=O)NC1CCCC1)N(C(=O)c1snc(C(N)=O)c1N)c1ccc(C)cc1C` (stereo unspecified), the lipid storage change, negative = inhibition is reported as inconclusive: -77.4%. For `COc1ccc(CC(NC(C)=O)C(=O)NC2CCN(c3nc(C)cc(C)c3C#N)CC2)c(OC)c1` (stereo unspecified), the lipid storage change, negative = inhibition was inconclusive: 24.2%. With `OC(COC1CCCCC1)CN1CCCCC1` (stereo unspecified) the lipid storage change, negative = inhibition was inconclusive: 125%. For `CC1CCN(CCCNC(=O)c2ccc(CSCc3cccc(Cl)c3)o2)CC1`, the Potency was inconclusive: 0.0651 µM [falling, full curve]. In the case of `O=C(COc1ccc(Cl)cc1)NCCS(=O)(=O)N1CCN(c2ccccc2F)CC1`, the Potency is reported as inconclusive: 0.517 µM [activator, partial curve]. In the case of `CC(=C/c1ccco1)/C=N/NC(=O)c1nnn(-c2nonc2N)c1CN(C)C`, the “outcome” value is reported as “inactive [at 46.1 µM]”. For `O=C(NCc1ccco1)C1CCCN(S(=O)(=O)c2cnc[nH]2)C1` (stereo unspecified), the lipid storage change, negative = inhibition was inconclusive: -23.7%. With `CNC(=S)Nc1cccc([N+](=O)[O-])c1` the lipid storage change, negative = inhibition was inconclusive: -1.42%. With `CCCCCn1c(N)c(-c2nc3ccccc3s2)c2c([N+](=O)[O-])nn(C)c(=O)c21` the lipid storage change, negative = inhibition was inconclusive: -18.9%. With `N=c1sccn1CC(=O)Nc1cc(S(=O)(=O)N2CCCC2)ccc1Cl` the Potency was inconclusive: 18.4 µM [activator, single point]. For `CC(=O)NS(=O)(=O)c1ccc(NC(=O)COc2cccc3c2OC(C)(C)C3)cc1`, the Potency was inconclusive: 4.61 µM [activator, full curve]. With `COC(=O)c1[nH]c2cc(OC)ccc2c1N` the Potency was inconclusive: 2.91 µM [falling, single point]. In the case of `CN(C)c1cc[n+](CC(=O)Nc2c(Cl)cc(Cl)cc2Cl)cc1`, the lipid storage change, negative = inhibition is reported as inconclusive: -29.1%. For `Cc1ccc(Nc2nc3nonc3nc2N(C)C)cc1`, the lipid storage change, negative = inhibition was inconclusive: 6.95%. With `CC(C)(CO)NC12CC3CC(CC(C3)C1)C2` the Potency was active: 0.058 µM. For `CN1CCN(CCCNC(=O)c2cc3c(=O)oc4ccccc4c3s2)CC1`, the lipid storage change, negative = inhibition was inconclusive: 67.6%. With `Cc1scc(C(=O)NNC(=O)CCC(=O)O)c1C` the lipid storage change, negative = inhibition was inconclusive: -9.15%. For `O=C(NCC1CCCO1)NC12CC3CC(CC(C3)C1)C2` (stereo unspecified), the lipid storage change, negative = inhibition was inconclusive: -40.6%. With `O=C(c1ccccc1)c1ccc(N2CCOCC2)c(F)c1` the lipid storage change, negative = inhibition was inconclusive: 19.9%. In the case of `NCCNCCNCCN`, the lipid storage change, negative = inhibition is reported as inconclusive: -16.1%. For `O=C(NC(=S)Nc1ccccc1O)c1ccc(Cl)cc1Cl`, the lipid storage change, negative = inhibition was inconclusive: 1.32%. With `O=C(CSc1nc(-c2ccco2)cc(C(F)(F)F)n1)NN1CCOCC1` the lipid storage change, negative = inhibition was inconclusive: -21.1%. With `COc1ccc(CC(=O)NNC(=O)COc2ccc3ccccc3c2)cc1` the lipid storage change, negative = inhibition was inconclusive: 10.6%. With `COc1ccc([N+](=O)[O-])cc1NC(=O)N(C)Cc1ccco1` the Potency was inconclusive: 29.1 µM [falling, single point]. For `Nc1nnnn1CC(=O)N/N=C/c1cc([N+](=O)[O-])ccc1O`, the lipid storage change, negative = inhibition was inconclusive: -43%. With `CC(C)=C1C2CCC1C(C(=O)Nc1sc(C)c(-c3ccc(C(C)C)cc3)c1C(N)=O)C2C(=O)O` (stereo unspecified) the lipid storage change, negative = inhibition was inconclusive: 14.1%. In the case of `O=C(CSc1ncnc2ccccc12)Nc1cc(S(=O)(=O)N2CCCCC2)ccc1Cl`, the Potency is reported as inconclusive: 6.51 µM [rising, partial curve, poor fit]. With `O=C(/C=C/c1ccccc1)OCCCN=C1NS(=O)(=O)c2ccccc21` the lipid storage change, negative = inhibition was inconclusive: -24.9%. In the case of `O=C(Nc1ccc2c(c1)OCO2)C1CCCN(c2nc3ccccc3s2)C1` (stereo unspecified), the lipid storage change, negative = inhibition is reported as inconclusive: 26.8%. For `CNc1nc(Oc2ccccc2C(=O)OC)nc(SC)n1`, the lipid storage change, negative = inhibition was inconclusive: -14.9%. In the case of `COc1ccc(C(c2c(C)n(C)n(-c3ccccc3)c2=O)c2c(C)n(C)n(-c3ccccc3)c2=O)cc1O`, the lipid storage change, negative = inhibition is reported as inconclusive: 0.274%. For `CCn1c(=O)c2cc(C(=O)NCCN3CCOCC3)sc2c2ccccc21`, the Potency was inconclusive: 29.1 µM [falling, single point]. For `COc1ccccc1NC(=O)CN1CCN(C(=O)C2CCCO2)CC1` (stereo unspecified), the lipid storage change, negative = inhibition was inconclusive: 29.5%. For `C/C(=N\NC(=O)c1ccc(N2CCCC2=O)cc1)c1ccc(O)cc1O`, the lipid storage change, negative = inhibition was inconclusive: -73.6%. For `CCSc1ccc([C@@H]2[C@@H]3C(=O)N(CC)C(=O)[C@@H]3[C@]3(C(=O)OC)CCCCN23)cc1OC`, the Potency was inconclusive: 4.11 µM [falling, single point]. With `CSC1=NC(C(Cl)(Cl)Cl)N=C(c2ccccc2)N1` (stereo unspecified) the lipid storage change, negative = inhibition was inconclusive: -5.26%. For `O=c1c(Cc2ccc(F)cc2)c(O)ccn1CCCN1CCOCC1`, the lipid storage change, negative = inhibition was inconclusive: -19.4%. For `COc1ccc([C@H]2CC(=O)C=C(c3cc(C=O)ccc3OC)C2)cc1OC`, the Potency was inconclusive: 2.06 µM [falling, partial curve, poor fit]. In the case of `O=C(CCN1C(=O)C2C3CCC(C3)C2C1=O)Nc1ccc(Br)cc1` (stereo unspecified), the Potency is reported as inconclusive: 8.2 µM [rising, partial curve]. For `CC1CCN(CC(=O)N2CCCc3c2c(=O)oc2ccc(OCc4ccccc4)cc32)CC1`, the Potency was inconclusive: 23.1 µM [activator, partial curve]. For `CCCOc1ccc(Br)cc1CSC(=N)N`, the Potency was active: 18.4 µM. With `O=C(O)c1cc(NC(=O)c2ccccc2F)cc(NC(=O)c2ccccc2F)c1` the Potency was inconclusive: 0.82 µM [activator, full curve]. In the case of `O=S1(=O)C=CC(Nc2cccc(Cl)c2)C1` (stereo unspecified), the lipid storage change, negative = inhibition is reported as inconclusive: -64.4%. In the case of `COc1ccccc1NC(=O)c1nc(S(=O)(=O)Cc2ccccc2)ncc1Cl`, the “outcome” value is reported as “inactive [at 46.1 µM]”. In the case of `CC1c2cc3c(cc2CCN1CC(=O)Nc1ccccc1)OCCCO3` (stereo unspecified), the Potency is reported as inconclusive: 6.51 µM [falling, single point]. With `COCC(C)OC(=O)/C(C#N)=C\c1coc2ccc(C)cc2c1=O` (stereo unspecified) the lipid storage change, negative = inhibition was inconclusive: -44.9%. With `COc1ccc(S(=O)(=O)n2nc(-c3ccc(Cl)cc3)cc2N)cc1OC` the Potency was inconclusive: 1.64 µM [activator, partial curve, poor fit]. With `CC1CCCC(C)N1CC(O)COCc1ccccc1` (stereo unspecified) the Potency was inconclusive: 0.731 µM [falling, full curve, poor fit]. For `O=C(CSCc1c(Cl)cccc1Cl)Nc1ccccc1-c1ccccc1`, the lipid storage change, negative = inhibition was inconclusive: 38.9%. With `Cc1cccc(NC(=O)c2cc(NC(=O)C3CCCCC3C(=O)O)ccc2Cl)n1` (stereo unspecified) the Potency was inconclusive: 11.6 µM [activator, partial curve, poor fit]. With `COCCCNC(=O)COC(=O)c1ccc(-c2nc3ccccc3s2)s1` the lipid storage change, negative = inhibition was inconclusive: -9.41%. For `COc1ccc(S(=O)(=O)N2CCOCC2)cc1NC(=O)c1cc(C)oc1C`, the lipid storage change, negative = inhibition was inconclusive: 1.47%. With `Cc1ccc(SCC(=O)Nc2ccc(-c3nnc(-c4ccco4)o3)cc2)cc1` the Potency was inconclusive: 18.4 µM [falling, single point]. For `O=C(NC(=S)Nc1ccc(F)c(Cl)c1)C1CC1`, the Potency was inconclusive: 6.51 µM [activator, single point]. With `CCOc1ccc(CCNC(=O)COC(=O)COc2ccc(Br)cc2)cc1OCC` the lipid storage change, negative = inhibition was inconclusive: 28.3%. In the case of `O=C(CCc1nc2ccccc2c(=O)[nH]1)NNC(=O)c1cccc(Cl)c1`, the lipid storage change, negative = inhibition is reported as “inconclusive”. In the case of `COc1nonc1NC(=O)CSc1nc2ccccc2[nH]1`, the lipid storage change, negative = inhibition is reported as inconclusive: -7.13%. In the case of `NC(=O)CC(NC(=O)c1cccc(Br)c1)c1ccc(NC2CCN(Cc3ccccc3)CC2)c([N+](=O)[O-])c1` (stereo unspecified), the lipid storage change, negative = inhibition is reported as inconclusive: -57.5%. In the case of `Cc1ccc(C(=O)N/C(=C/c2ccc(-c3cccc([N+](=O)[O-])c3)o2)C(=O)NC(C)(C)C)cc1`, the Potency is reported as inconclusive: 0.184 µM [falling, partial curve, poor fit]. For `CC[C@H](C)C(N)c1cn(C(CCCN=C(N)N)C(=O)N2CCNCC2)nn1` (stereo partly specified), the Potency was inconclusive: 13 µM [activator, partial curve]. With `Cc1ccc(C(c2nnnn2C2CCCC2)N2CCc3ccccc32)cc1` (stereo unspecified) the Potency was inconclusive: 0.517 µM [falling, single point]. For `CCOc1ccccc1NC(=O)c1cccc2ccccc12`, the Potency was inconclusive: 6.51 µM [activator, single point]. In the case of `COc1ccc(CNC(=O)c2ccc[nH]2)cc1Cl`, the lipid storage change, negative = inhibition is reported as inconclusive: 14.4%. In the case of `COc1cc(NC(=S)N2CCC(C(N)=O)CC2)c(OC)cc1Cl`, the lipid storage change, negative = inhibition is reported as inconclusive: 8.79% [at 9.22 µM]. For `CCc1csc(CNC(=O)C2CCC(=O)N(Cc3cccc(F)c3)C2)n1` (stereo unspecified), the Potency was inconclusive: 25.9 µM [activator, partial curve, poor fit]. With `Cc1nc2cc(-c3ccc(Cl)cc3)nn2c(NCCN(C)C)c1C` the lipid storage change, negative = inhibition was inconclusive: -46.4%. In the case of `CCOc1cc(N2CCOCC2)c(OCC)cc1NC(=O)COc1ccccc1[N+](=O)[O-]`, the lipid storage change, negative = inhibition is reported as inconclusive: 16.8%. In the case of `N#CCC(=O)Nc1ccc(C(=O)NNC(=S)NC2CC2)cc1`, the lipid storage change, negative = inhibition is reported as “inconclusive”. For `CCOC(=O)C1CCN(c2c(NCCN(CC)c3ccccc3)c(=O)c2=O)CC1`, the lipid storage change, negative = inhibition was inconclusive: -5.04%. For `CC(C)(C)c1ccc(C(=O)N2CCC(C(=O)NC3CCCCCC3)CC2)cc1`, the lipid storage change, negative = inhibition was inconclusive: 32.4%. For `O=C(NC(=S)Nc1ccccc1N1CCCC1)c1ccc([N+](=O)[O-])cc1`, the Potency was inconclusive: 3.26 µM [falling, partial curve]. For `COc1ccc(C(=O)N2CCCC(Nc3ccc(C)c(C)c3)C2)cc1` (stereo unspecified), the Potency was inconclusive: 3.26 µM [activator, single point]. For `CC(C)(C)NC(=O)CON=C1c2ccccc2-c2ccccc21`, the lipid storage change, negative = inhibition was inconclusive: 35.6%. In the case of `O=C(c1ccccc1F)N1CCCc2ccccc21`, the Potency is reported as inconclusive: 0.58 µM [falling, single point]. For `O=C(NCCOc1ccccc1)c1ccccc1NC(=O)C1CCCO1` (stereo unspecified), the lipid storage change, negative = inhibition was inconclusive: 7.42%. In the case of `COc1ccccc1CC(=O)N1CCCC(CCC(=O)NCc2ccccc2F)C1` (stereo unspecified), the Potency is reported as inconclusive: 16.4 µM [falling, single point].
